From article PMC3938055
Results are given in words; binding and its absence hold for the method and conditions named. Some binding calls cover weakened binding; strength is not graded here.

Sequences of proteins named here, by UniProt entry; tags and fusion partners are left off.
UniProt Q8N2Z9: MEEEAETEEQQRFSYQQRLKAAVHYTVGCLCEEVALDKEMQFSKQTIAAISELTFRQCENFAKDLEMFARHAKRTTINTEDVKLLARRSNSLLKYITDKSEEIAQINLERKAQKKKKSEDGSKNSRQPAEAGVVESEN
UniProt Q96BT3: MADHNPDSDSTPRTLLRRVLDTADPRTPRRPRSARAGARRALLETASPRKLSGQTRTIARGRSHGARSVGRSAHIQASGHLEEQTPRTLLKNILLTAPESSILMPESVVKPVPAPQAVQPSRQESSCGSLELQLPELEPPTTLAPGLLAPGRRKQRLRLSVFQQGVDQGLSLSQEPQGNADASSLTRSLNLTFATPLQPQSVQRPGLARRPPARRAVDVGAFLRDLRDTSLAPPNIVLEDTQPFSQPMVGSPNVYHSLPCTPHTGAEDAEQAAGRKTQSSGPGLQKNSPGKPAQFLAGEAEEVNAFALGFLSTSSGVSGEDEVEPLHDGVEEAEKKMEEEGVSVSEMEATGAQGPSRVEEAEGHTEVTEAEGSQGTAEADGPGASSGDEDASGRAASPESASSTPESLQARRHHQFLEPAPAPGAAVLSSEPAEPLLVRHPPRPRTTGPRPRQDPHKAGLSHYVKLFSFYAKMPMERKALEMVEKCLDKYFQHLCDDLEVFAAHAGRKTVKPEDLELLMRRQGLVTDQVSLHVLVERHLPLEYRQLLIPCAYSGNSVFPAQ
UniProt Q9NSP4: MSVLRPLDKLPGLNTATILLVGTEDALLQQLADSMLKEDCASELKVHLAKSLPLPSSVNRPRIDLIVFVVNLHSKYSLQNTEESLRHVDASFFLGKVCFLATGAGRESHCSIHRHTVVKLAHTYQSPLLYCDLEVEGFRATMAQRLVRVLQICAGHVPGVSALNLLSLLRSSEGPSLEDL
UniProt A8MT69: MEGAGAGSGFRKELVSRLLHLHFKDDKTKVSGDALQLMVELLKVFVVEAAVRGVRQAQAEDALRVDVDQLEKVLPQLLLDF
UniProt Q13352: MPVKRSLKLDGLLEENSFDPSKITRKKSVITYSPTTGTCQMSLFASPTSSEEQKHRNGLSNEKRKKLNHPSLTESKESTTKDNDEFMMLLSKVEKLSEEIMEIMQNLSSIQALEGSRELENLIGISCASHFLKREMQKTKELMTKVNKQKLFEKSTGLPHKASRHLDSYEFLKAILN

Columns and labels:
[1] = molecular target: CENP-S (yeast two-hybrid fusion) (human) (UniProt Q8N2Z9); assay: two-hybrid; yeast two-hybrid; no details given
[2] = molecular target: mCherry-CENP-S (human) (UniProt Q8N2Z9); assay: fluorescence cross-correlation spectroscopy (FCCS); EGFP- and mCherry-fusions co-expressed in living U2OS cells; 12 measurements in the cytoplasm
[3] = molecular target: EGFP-CENP-T (UniProt Q96BT3); assay: two-hybrid; mammalian fluorescent two-hybrid (F2H) in BHK cells with a lac-operator array; EGFP-tagged bait tethered by LacI-GBP, recruitment of mCherry-tagged prey seen by confocal microscopy of fixed cells; the paper says it is not clear that recruitment is through direct interactions

## CENP-M (yeast two-hybrid fusion) (from UniProt Q9NSP4 1-180)
[1]
  binding: no binding

## EGFP-CENP-X (from UniProt A8MT69 1-81)
[2]
  binding: binds

## mCherry-CENP-R (from UniProt Q13352 1-177)
[3]
  binding: no binding
